Reference: publication PMC9067375, “Biochemical and crystallization analysis of the CENP-SX–DNA complex” (Acta Crystallographica. Section F, Structural Biology …, 2022)
No constants are given. Whether binding was seen depends on the method and setting. Some results given as binding are weak or reduced against the parent protein; the word gives no strength.

Tests used:
[1] = molecular target: T1, CENP-SX (MHF) complex, chicken, tetramer (Gallus gallus); test: condition: only in crystallization drops with 30% 1,4-dioxane (organic solvent); SDS-PAGE of the contents of crystals; crystals grown from the FANCM–CENP-SX pentamer (50 µM) with dsDNA in about 30% 1,4-dioxane, 293 K; crystals, solution and film analysed by 15% SDS–PAGE, Coomassie Brilliant Blue; both purified
T1 sequence 1: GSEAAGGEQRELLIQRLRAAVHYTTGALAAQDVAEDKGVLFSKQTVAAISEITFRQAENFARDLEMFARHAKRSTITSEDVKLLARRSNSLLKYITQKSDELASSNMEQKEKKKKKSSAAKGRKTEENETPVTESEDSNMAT
T1 sequence 2: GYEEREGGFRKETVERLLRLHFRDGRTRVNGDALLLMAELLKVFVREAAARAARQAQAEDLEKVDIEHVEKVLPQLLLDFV

[2] = molecular target: T1, CENP-SX (MHF) complex, chicken, tetramer (Gallus gallus); test: native gel or EMSA; FANCM–CENP-SX pentamer (1.25 µM) with dsDNA of 19–97 bp (1.25 µM), 42°C for 60 min, 10 mM Tris–HCl pH 7.5, 100 mM NaCl; 10–20% gradient native PAGE, ethidium bromide and Coomassie staining; both purified

binding [1]: no binding | binding [2]: binds
B1: FANCM fragment, chicken (as in the FANCM–CENP-SX complex) (domain or fragment)
chain: GRSLHHKSALFSCVTDPKEMHCHENWSLSPEEFEIWDRLYRLKENDGVKEPILPHTRFETLENLDKTSKPEEEAAHKLSLSEWSIWQSRPFPTSMVDHSDRCYHFISVMELIEVMRQEQGDCSYELELQPHLRIEDIHVRRNKGHLSP
